Source: the supplement of paper PMC8728848
This is one part of the list.

What was measured:
Experiment in all cases: glycan array binding signal (z-score within array); higher = stronger binding
Conditions in all cases: glycan notation: IUPAC condensed, linker removed; mutation: R201A
[1] = target: GlcNAc(b1-4)GlcNAc(b1-4)GlcNAc(b1-4)GlcNAc(b1-4)GlcNAc
Method in brief: (§1)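 Glycan array data were curated from 3228 arrays in the Consortium for Functional Glycomics database and kept only where the protein sequence was available. Glycan names were converted to IUPAC-condensed notation, and columns mapping to the same glycan were averaged. The binding signal is a within-array Z-score, averaged across arrays of the same protein sequence at different concentrations or buffers and across linkers. Negative Z-scores can be read as non-binding.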

[2] = target: GlcNAc(b1-4)GlcNAc(b1-4)GlcNAc(b1-4)GlcNAc(b1-4)GlcNAc(b1-4)GlcNAc
Method in brief: as §1

[3] = target: GlcNAc(b1-4)[GlcNAc(b1-6)]GalNAc
Method in brief: as §1

[4] = target: GlcNAc(b1-6)Gal(b1-4)GlcNAc
Method in brief: as §1

GlcNAc(b1-6)GalNAc = target: GlcNAc(b1-6)GalNAc
Method in brief: as §1

[5] = target: GlcNAc6S(b1-3)Gal(b1-4)GlcNAc
Method in brief: as §1

Kdn(a2-3)Gal(b1-3)GalNAc = target: Kdn(a2-3)Gal(b1-3)GalNAc
Method in brief: as §1

Kdn(a2-3)Gal(b1-3)GlcNAc = target: Kdn(a2-3)Gal(b1-3)GlcNAc
Method in brief: as §1

Kdn(a2-3)Gal(b1-4)Glc = target: Kdn(a2-3)Gal(b1-4)Glc
Method in brief: as §1

Kdn(a2-3)Gal(b1-4)GlcNAc = target: Kdn(a2-3)Gal(b1-4)GlcNAc
Method in brief: as §1

[6] = target: Kdn(a2-3)Gal(b1-4)[Fuc(a1-3)]GlcNAc
Method in brief: as §1

Kdn(a2-6)Gal(b1-4)GlcNAc = target: Kdn(a2-6)Gal(b1-4)GlcNAc
Method in brief: as §1

[7] = target: Man(a1-2)Man(a1-2)Man(a1-3)Man
Method in brief: as §1

[8] = target: Man(a1-2)Man(a1-2)Man(a1-6)[Man(a1-3)]Man
Method in brief: as §1

Man(a1-2)Man(a1-3)Man = target: Man(a1-2)Man(a1-3)Man
Method in brief: as §1

[9] = target: Man(a1-2)Man(a1-3)[Man(a1-2)Man(a1-6)]Man
Method in brief: as §1

[10] = target: Man(a1-2)Man(a1-3)[Man(a1-2)Man(a1-6)]Man(a1-6)[Man(a1-2)Man(a1-2)Man(a1-3)]Man
Method in brief: as §1

[11] = target: Man(a1-2)Man(a1-3)[Man(a1-2)Man(a1-6)]Man(a1-6)[Man(a1-2)Man(a1-2)Man(a1-3)]Man(b1-4)GlcNAc(b1-4)GlcNAc
Method in brief: as §1

[12] = target: Man(a1-2)Man(a1-3)[Man(a1-6)]Man(a1-6)[Man(a1-2)Man(a1-3)]Man(b1-4)GlcNAc(b1-4)GlcNAc
Method in brief: as §1

[13] = target: Man(a1-2)Man(a1-6)[Man(a1-3)]Man(a1-6)[Man(a1-2)Man(a1-2)Man(a1-3)]Man
Method in brief: as §1

[14] = target: Man(a1-2)Man(a1-6)[Man(a1-3)]Man(a1-6)[Man(a1-2)Man(a1-2)Man(a1-3)]Man(b1-4)GlcNAc(b1-4)GlcNAc
Method in brief: as §1

Man(a1-3)[Man(a1-6)]Man = target: Man(a1-3)[Man(a1-6)]Man
Method in brief: as §1

[15] = target: Man(a1-3)[Man(a1-6)]Man(a1-6)[Man(a1-2)Man(a1-3)]Man(b1-4)GlcNAc(b1-4)GlcNAc
Method in brief: as §1

[16] = target: Man(a1-3)[Man(a1-6)]Man(a1-6)[Man(a1-3)]Man
Method in brief: as §1

[17] = target: Man(a1-3)[Man(a1-6)]Man(a1-6)[Man(a1-3)]Man(b1-4)GlcNAc(b1-4)GlcNAc
Method in brief: as §1

[18] = target: Man(a1-3)[Man(a1-6)]Man(b1-4)GlcNAc(b1-4)GlcNAc
Method in brief: as §1

[19] = target: Man(a1-3)[Man(a1-6)]Man(b1-4)GlcNAc(b1-4)[Fuc(a1-6)]GlcNAc
Method in brief: as §1

Man(a1-6)Man = target: Man(a1-6)Man
Method in brief: as §1

Man(b1-4)GlcNAc = target: Man(b1-4)GlcNAc
Method in brief: as §1

MurNAc(b1-4)GlcNAc = target: MurNAc(b1-4)GlcNAc
Method in brief: as §1

Neu5Ac(a2-3)Gal = target: Neu5Ac(a2-3)Gal
Method in brief: as §1

[20] = target: Neu5Ac(a2-3)Gal(b1-3)GalNAc
Method in brief: as §1

[21] = target: Neu5Ac(a2-3)Gal(b1-3)GalNAc(b1-3)Gal(a1-4)Gal(b1-4)Glc
Method in brief: as §1

[22] = target: Neu5Ac(a2-3)Gal(b1-3)GalNAc(b1-4)Gal(b1-4)Glc
Method in brief: as §1

[23] = target: Neu5Ac(a2-3)Gal(b1-3)GalNAc(b1-4)[Neu5Ac(a2-3)]Gal(b1-4)Glc
Method in brief: as §1

[24] = target: Neu5Ac(a2-3)Gal(b1-3)GalNAc(b1-4)[Neu5Ac(a2-8)Neu5Ac(a2-3)]Gal(b1-4)Glc
Method in brief: as §1

[25] = target: Neu5Ac(a2-3)Gal(b1-3)GalNAc6S
Method in brief: as §1

B1: OS9 (Arabidopsis thaliana) (protein)
chain: MRGSHHHHHHGMASMTGGQQMGRDLYDDDDKSRLQIFPAHLVGTFSRNNREPKYKIEFLPEDSPFHPGDNLESMVMLDKHGNRFLCYLPKEEKATSGWTSSQQNISTVMMETQQLVKLKTPDELLQPLSEKCLFRQEGWWSYEFCHQKYVRQLHVEDENKIVQEFFLGTFDPEATAAFNQTVSDASTDASQRYHSHVYTNGTTCDLTGSPAEVEVRFVCAETRAMVTSITELSTCKYALTVQCPTLCKHPLFQLEKPVSHTIHCNAIPVEEDATRNKEEQAVDESPKMIADS
For B1, the “glycan array binding signal (z-score)” value [1] was 1.16, the “glycan array binding signal (z-score)” value [2] was 0.152 and the “glycan array binding signal (z-score)” value [3] was -0.045. For the same binder, the “glycan array binding signal (z-score)” value [4] was 0.172, the “glycan array binding signal (z-score)” value (GlcNAc(b1-6)GalNAc) was -0.498 and the “glycan array binding signal (z-score)” value [5] was -0.224. The “glycan array binding signal (z-score)” value (Kdn(a2-3)Gal(b1-3)GalNAc) was 0.105, the “glycan array binding signal (z-score)” value (Kdn(a2-3)Gal(b1-3)GlcNAc) was -0.515 and the “glycan array binding signal (z-score)” value (Kdn(a2-3)Gal(b1-4)Glc) was -0.85. The “glycan array binding signal (z-score)” value (Kdn(a2-3)Gal(b1-4)GlcNAc) was 0.191, the “glycan array binding signal (z-score)” value [6] was 0.82 and the “glycan array binding signal (z-score)” value (Kdn(a2-6)Gal(b1-4)GlcNAc) was -0.068. For the same binder, the “glycan array binding signal (z-score)” value [7] was 0.875, the “glycan array binding signal (z-score)” value [8] was 0.361 and the “glycan array binding signal (z-score)” value (Man(a1-2)Man(a1-3)Man) was 0.874. For the same binder, the “glycan array binding signal (z-score)” value [9] was -0.568, the “glycan array binding signal (z-score)” value [10] was 0.167 and the “glycan array binding signal (z-score)” value [11] was 0.316. For the same binder, the “glycan array binding signal (z-score)” value [12] was -0.138, the “glycan array binding signal (z-score)” value [13] was 0.212 and the “glycan array binding signal (z-score)” value [14] was -0.12. For the same binder, the “glycan array binding signal (z-score)” value (Man(a1-3)[Man(a1-6)]Man) was -0.58, the “glycan array binding signal (z-score)” value [15] was 0.185 and the “glycan array binding signal (z-score)” value [16] was -0.072. For the same binder, the “glycan array binding signal (z-score)” value [17] was 1.03, the “glycan array binding signal (z-score)” value [18] was -0.762 and the “glycan array binding signal (z-score)” value [19] was 0.428. For the same binder, the “glycan array binding signal (z-score)” value (Man(a1-6)Man) was -0.709, the “glycan array binding signal (z-score)” value (Man(b1-4)GlcNAc) was -0.888 and the “glycan array binding signal (z-score)” value (MurNAc(b1-4)GlcNAc) was 0.569. For the same binder, the “glycan array binding signal (z-score)” value (Neu5Ac(a2-3)Gal) was -0.76, the “glycan array binding signal (z-score)” value [20] was 0.015 and the “glycan array binding signal (z-score)” value [21] was -0.854. The “glycan array binding signal (z-score)” value [22] was 0.276, the “glycan array binding signal (z-score)” value [23] was -0.662 and the “glycan array binding signal (z-score)” value [24] was -0.018. The “glycan array binding signal (z-score)” value [25] was -1.18.
